Literature values as cited in US20230279132A1, “TREATMENT OF B CELL MALIGNANCIES” (NOVARTIS AG, priority 2020, published 2023).
At least one structure is not confirmed: it was looked up by name or label, or the drawing left a doubt.

Key:
[1] = system: MCL; conditions: cited from earlier work
[2] = system: DLBCL; conditions: DLBCL patients; cited from earlier work
[3] = single agent phase II, relapsed/refractory MCL (ACE-LY-004)

Row | SMILES | CR rate [1, 3] [%] | ORR [1, 3] [%] | median PFS [1, 3] [months] | ORR [2] [%] | progression-free survival (PFS) compared to temsirolimus ([1]; Phase III study) | complete response rate (CRR) ([1]; phase II, combined with the Bcl-2 inhibitor venetoclax, 9% in historical controls) [%]
1 | CC#CC(=O)N1CCC[C@H]1c1nc(-c2ccc(C(=O)Nc3ccccn3)cc2)c2c(N)nccn12 [acalabrutinib] | 43 | 81 | 20 | – | – | –
2 | C=CC(=O)N1CCC[C@@H](n2nc(-c3ccc(Oc4ccccc4)cc3)c3c(N)ncnc32)C1 [ibrutinib] | – | – | – | 25 | significant improvement | 42
